Measured values published in publication PMC10163288.
This is one part of the list.

B1: il2ra_site1_1z92_normal_mot_HHH_b1_07140_000000289_0001_23_40_H_._HHH_b2_05789_af2_0002_0000200026_0000001_0_af2pred_0001_af2pred_1 (protein)
chain: SSSSSDEREIAKEALELFEEANKVKDEEELEELLEKALELAREGNNERLVKSLERLLDDDSSSSS
B2: il2ra_site1_3nfp_sap_8_mot_93ec910cbd4ebb8dd092c1ac1e61ab37_0001_1_af2_000000101_0001_16_31_H_._22fa1065b69cf192845a0250a7ccff51_0001_1_0001_0000400021_0000001_ … (protein)
chain: SSSSDSVEWLQEMIERAFENNDRRQLRVLIKILEKAAEQFGDPEVEKLLEEAERLLEELNSSSSS
B3: il2ra_site1_3nfp_sap_18_mot_HHH_b2_00162_af2_000000036_0001_22_38_H_._28c41ff5ff93e4e540bfc34eab8aed47_0001_af2_0001_0000300023_0000001_0_0001 (protein)
chain: SSSSDREAFELAEEVYEVIKEGDEERVRELLEELRKWVEEEGDKVDEYFLRMLEQAAERQFSSSS
B4: il2ra_site1_1z92_sap_17_mot_HHH_b2_04325_000000036_0001_39_52_H_._ad6fc7cc688aee799991fbcb742478cf_0001_1_af2_0001_0000900052_0000001_0_0001 (protein)
chain: SSSSDARERIEELAEFLHRDARKTNNEWALRLLEALLRKARKLGDEELEERIEELIERLKSSSSS
B5: il2ra_site2_3nfp_sap_19_mot_HHH_b2_04230_000000235_0001_39_52_H_._771ca5fb7044fd74913a74cac1256c5f_0001_0001_0000400024_0000001_0_0001 (protein)
chain: SSSSDEEEREVEELLEEAKKISDEEERRKVLAKAAHIAWEARNPELFFLVAEVLTELIQKSSSSS
B6: il2ra_site2_2erj_sap_10_mot_HHH_b2_07568_000000046_0001_18_34_H_._HHH_b1_08658_0001_0000400009_0000001_0_0001 (protein)
chain: SSSSSSDIHERVREEFEEAAERNDLHALYEIANRLTHLASKLNDPELLELARELVERASSSSSSS
B7: il2ra_site2_3nfp_normal_mot_HHH_b1_04781_af2_000000057_0001_1_18_H_._3b61d7363a4279ee81a7dec5202e1ad9_0001_af2_0001_0000100003_0000001_0 (protein)
chain: DAVEEAIHNIERKDEELSELLEEVLRLIEEKKDPELQLLLYAAIVAVYRGNPEEAKEILKEALER
B8: il2ra_site2_2erj_normal_mot_HHH_b1_03464_000000177_0001_1_14_H_._HHH_b1_07054_0001_0000500044_0000001_1_af2pred_0001_1_af2pred_swapped (protein)
chain: SSSSDVEERIQELLEEAEEILEKHKDPQKAFLVVQEAAFLAARNRNDELLKEVMELAQRINSSSS
B9: il2ra_site1_3nfp_sap_14_mot_HHH_b2_04095_af2_000000160_0001_43_56_H_._HHH_b2_03688_af2_0001_0000300040_0000001_1_0001_af2pred_0001_af2pred_1 (protein)
chain: SSSSTRKSRELIESAEELAERLNDPETLRELEELRERYEEEGDQRLLQRVFELLAELLRRFSSSS
B10: il2ra_site2_2erj_normal_mot_HHH_b2_08028_000000126_0001_18_34_H_._HHH_b2_03584_af2_0001_0001800033_0000001_1 (protein)
chain: SSSSDLEELLEEAERLLEEGDPEEAHRVLSRAFELAYENRDEELAARLAKLFEEIARYEGSSSSS
B11: il2ra_site2_2erj_normal_mot_HHH_b1_04373_af2_000000118_0001_18_33_H_._HHH_b2_07966_af2_0001_0000200008_0000001_0 (protein)
chain: SSSSDTEEEVREVLEEAKEAWEEGDLEQVYRLAVRALRIASENRDEEAQRLVLKWLEELVSSSSS
B12: il2ra_site2_2erj_normal_mot_HHH_b2_06411_000000092_0001_40_56_H_._HHH_b2_06286_0001_0000200009_0000001_0 (protein)
chain: SSSSSDVEEEARELLEEAKELYEEGNLEEVYRLAVEVLRLASRYNNHEVQELLRRVLEEISSSSS
B13: il2ra_site2_3nfp_sap_28_mot_HHH_b1_05437_000000005_0001_40_57_H_._0f396a3c5b789435df01682a1ed80b82_0001_1_af2_0001_0000800020_0000001_0_0001 (protein)
chain: SSSSDEERVEELLEKVEELLKRGNPEEARKALREAAHIAYENNNSELYMKIAEYLFELVQSSSSS
B14: il2ra_site1_3nfp_normal_mot_HHH_b1_04931_000000291_0001_38_56_H_._5fa2c1a30f04debedfe40931e4d0b367_0001_af2_0001_0000700055_0000001_0 (protein)
chain: DVRFLLEAARFAGDELVVEVAEKLEELREEDPDDQEVKELVQKLLQLLAKDPEEAKKLAEELKRR
B15: il2ra_site2_2erj_normal_mot_HHH_b2_03093_af2_000000119_0001_18_34_H_._HHH_b1_04436_af2_0001_0000200013_0000001_0 (protein)
chain: SSSSDEIEELEKRAEELLEKGNPEEALEVLRKAFELAWRNRDFETISKIAELTKEVARRLASSSS
B16: il2ra_site2_2erj_normal_mot_90f6a21de4ed711cb697bb9f61d9c40c_0001_af2_000000135_0001_36_50_H_._HHH_b2_03327_0002_0000300013_0000001_0 (protein)
chain: SSSDREEVAERVVEELVKELGLDEEAQHQLEASARNAIESGFSPESIEWYLRAVAEHLLEQLSSS
B17: il2ra_site1_1z92_sap_27_mot_HHH_b1_04615_af2_000000156_0001_38_52_H_._HHH_b2_08158_0001_0001200051_0000001_0_0001 (protein)
chain: SSSSDRSAEWAFELAKAALRLYERSGDPKARERVEFVIRELEMLGNPELAEELEEILERIDSSSS
B18: il2ra_site1_2b5i_normal_mot_f5ff40796168375b462bec8614a1db4a_0001_1_000000138_0001_53_65_H_._HHH_b2_01747_af2_0001_0000400018_0000001_0_af2pred_dldesign_0_af2pr … (protein)
chain: SSSSMTLEEQVKEYLKKVDELKAQGKLDEAKKLLILARKVARKSGNEELLAEVEAKLKELSSSSS
B19: il2ra_site2_2erj_normal_mot_HHH_b2_01353_af2_000000049_0001_23_39_H_._HHH_b1_04436_af2_0001_0000800048_0000001_0 (protein)
chain: SSSSDEIEELLKEAKELLEKGNPEEADRVLRRASELAFENNDFEIFSEIAELLELVARLEASSSS
B20: il2ra_site2_2erj_normal_mot_HHH_b1_06078_000000236_0001_23_39_H_._HHH_b1_08670_0001_0000200019_0000001_0 (protein)
chain: SSSSNELTRRALEIIEEAFERGLSKEEIQELLEELLEEARELGDEDEVRLIESAIEYLRRLSSSS
B21: il2ra_site2_2erj_sap_25_mot_6ec3e94b46d95805cdcdc10c0c108f03_0001_af2_000000040_0001_36_50_H_._HHH_b1_00647_0001_0000300023_0000001_0_0001 (protein)
chain: SSSSDLREFAEEVVKRLVEELGLDEEQEEALEWAAEAAEEAGLDEELIEKWLRRMAEFLKSSSSS
B22: il2ra_site1_1z92_sap_12_mot_HHH_b2_02540_000000162_0001_1_16_H_._2d5a0e42518f7c0de0c8a0066b0bd8d1_0001_af2_0001_0000100001_0000001_0_0001 (protein)
chain: SSSSSEANEEQLEVAIRSAEIALEAGDPRAARRLLEFLLQQARLDNDEEARRLLEELLEELSSSS
B23: il2ra_site1_1z92_sap_12_mot_HHH_b2_02761_000000226_0001_1_18_H_._HHH_b1_05944_af2_0001_0000100001_0000001_0_0001_af2pred_0001_af2pred (protein)
chain: SSSSDEEAEELLEEVKEKLQELLERGDPEEAQKLANRAFERLLKLGNRELAEELNEFYRKLSSSS
B24: il2ra_site1_1z92_normal_mot_3c291a2f2994a8e029b17f9ec7f22732_0001_af2_000000144_0001_36_50_H_._66959ead3e6c57cb3ef8243f3eb758e0_0001_1_0001_0000100001_0000001_1 … (protein)
chain: STVEEDLREAVEKNDEELLRRFIKLALEDAGDPELVRQYLKILVKKLGLPPEVLERLEELLEELT

target: il2ra, P01589; assay: yeast display titration

Apparent Kd, inactive:
B1 no binding seen
B2 no binding seen
B3 no binding seen
B4 no binding seen
B5 no binding seen
B6 no binding seen
B7 no binding seen
B8 no binding seen
B9 no binding seen
B10 no binding seen
B11 no binding seen
B12 no binding seen
B13 no binding seen
B14 no binding seen
B15 no binding seen
B16 no binding seen
B17 no binding seen
B18 no binding seen
B19 no binding seen
B20 no binding seen
B21 no binding seen
B22 no binding seen
B23 no binding seen
B24 no binding seen

Looked up one by one from the entries so far:
Apparent Kd, inactive:
B19 no binding seen
B24 no binding seen
